According to PubChem BioAssay AID1487 (National Center for Advancing Translational Sciences (NCATS), 2009):
Some of the results follow. Further columns of the screen follow, without active or inactive calls. Compounds called inactive in the main read-out are mostly missing here. Potencies come from curve fits of mixed quality, noted in brackets.

Assay: qHTS Assay for Modulators of Lamin A Splicing
Conditions: HeLa LMNA splicing GFP/RFP minigene ratio, 48 h
Procedure, shortened: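 S3 HeLa stable clones carrying a lamin A-EGFP splicing minigene plus DsRed2 were seeded at 600 cells/well in Opti-MEM with 2% FBS, pin-dosed and incubated 48 h at 37°C. Acumen cytometry (488 nm) gave the GFP/RFP total-intensity ratio.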

[1] = measured here: GFP splicing reporter channel
[2] = measured here: RFP viability control channel

| Structure (SMILES) | AC50 [1] | AC50 [2] |
| --- | --- | --- |
| Cc1oc2c(O)c(O)ccc2c(=O)c1-c1ccccc1 | 3.16 µM [falling, single point] | – |
| CC(Nc1nc(-c2ccc3c(c2)NC(=O)CO3)cs1)c1ccccc1 (centres undefined) | 35.5 µM [falling, single point] | 35.5 µM [falling, single point] |
| COc1cc(OC)cc(C(=O)OCc2ccc([N+](=O)[O-])cc2)c1 | 0.0447 µM [rising, full curve, poor fit] | – |
| CSC1=C(C#N)C(c2ccccc2Cl)C(C(=O)c2cccs2)C(O)(C(F)(F)F)N1 (centres undefined) | 12.6 µM [rising, single point] | 17.8 µM [rising, single point] |
| CCOc1ccc(S(=O)(=O)N(CC(=O)Nc2cc(C)on2)Cc2ccccc2Cl)cc1 | 35.5 µM [rising, single point] | 28.2 µM [rising, single point] |
| N#C/C(=C\c1ccc2c(c1)OCCO2)C(=O)NC1CCCCC1 | – | 35.5 µM [rising, single point] |
| CCOc1ccc(OCC)c(NC(=O)CSc2nnc(-c3cccnc3)o2)c1 | 35.5 µM [falling, single point] | 12.6 µM [falling, partial curve, poor fit] |
| CCNC(=S)Nc1ccc(Cl)c(C(F)(F)F)c1 | – | 35.5 µM [rising, single point] |
| Cc1ccccc1NCC(=O)N/N=C\C=C\c1cccc([N+](=O)[O-])c1 | 11.2 µM [falling, partial curve, poor fit] | 7.08 µM [falling, partial curve, poor fit] |
| CCc1ccc(OC(C)c2nnc(SCC(=O)Nc3ncccc3C)n2C)cc1 (centres undefined) | 12.6 µM [rising, single point] | 14.1 µM [rising, single point] |
| C=C(C)C1(O)OC(=O)C=C1OC (centres undefined) | 11.2 µM [falling, partial curve] | 8.91 µM [falling, single point] |
| COc1ccc(NC(=O)C(=O)NCCc2csc(-c3ccc(Cl)cc3)n2)cc1 | – | 15.8 µM [rising, single point] |
| CC(=O)N[C@@H](Cc1c[nH]c2ccccc12)C(=O)OCc1cc(C(F)(F)F)cc(C(F)(F)F)c1 | 5.62 µM [falling, partial curve, poor fit] | 5.62 µM [falling, single point] |
| FC(F)Sc1ccc(-n2cc(-c3ccccc3)[n+]3c2CCC3)cc1 | – | 35.5 µM [rising, single point] |
| C=CCOC(=O)N1CCN(c2cccc(C(F)(F)F)c2)CC1 | 3.16 µM [falling, single point] | 3.55 µM [falling, single point] |
| CCCOc1ccc(Nc2nc(SC)ncc2C(=O)OCC)cc1 | 3.98 µM [rising, partial curve, poor fit] | 17.8 µM [rising, partial curve, poor fit] |
| N#CC1=C(SCc2ccccc2)NC(=O)C(C#N)C12CCCC2 (centres undefined) | 1 µM [rising, full curve] | 5.62 µM [rising, partial curve] |
| O=c1[nH]c(Cc2ccc(F)cc2)nc2scc(-c3ccc(F)cc3)c12 | 4.47 µM [rising, full curve, poor fit] | 11.2 µM [rising, partial curve, poor fit] |
| Cc1nc2ccccc2n1CSc1ccccc1 | 7.08 µM [rising, partial curve] | 11.2 µM [rising, partial curve] |
| Cc1cc(NC(=O)CS(=O)(=O)c2cn(Cc3ccccc3Cl)c3ccccc23)no1 | – | 14.1 µM [rising, partial curve] |
| Oc1cccc2ccc(Nc3ccccn3)nc12 | 14.1 µM [falling, partial curve] | 35.5 µM [falling, single point] |
| CCOC(=O)c1c(-c2ccccc2)csc1/N=C/C1C(=O)CCCC1=O | 2 µM [rising, partial curve, poor fit] | – |
| COc1ccc(C2=C(Nc3ccc(F)cc3)c3ccccc3C2=O)cc1 | 35.5 µM [falling, single point] | – |
| COCc1ccc(C(=O)NC(C)c2cnn(-c3ccccc3C)c2C)o1 (centres undefined) | 0.501 µM [falling, partial curve, poor fit] | – |
| CS(=O)(=O)N1CCN(c2ccc(NC(=S)NC(=O)c3cccs3)cc2)CC1 | 0.891 µM [falling, full curve, poor fit] | – |
| CCOc1ccc(CCNC(=O)c2ccc(CS(=O)(=O)Cc3ccccc3Cl)o2)cc1OCC | 11.2 µM [falling, partial curve, poor fit] | – |

| Structure (SMILES) | AC50 [1] | AC50 [2] |
| --- | --- | --- |
| Cc1ccccc1CN1CCc2nc(Nc3ccc4c(c3)OCCO4)ncc2C1 | – | 5.62 µM [rising, partial curve, poor fit] |
| Cc1ccc(S(=O)(=O)Nc2cc(C(=O)Nc3cc(C)cc(C)c3)ccc2Cl)cc1 | 11.2 µM [rising, partial curve] | 28.2 µM [rising, single point] |
| CCCC(=O)c1ccc(N2CCN(S(=O)(=O)c3ccccc3)CC2)c(F)c1 | 31.6 µM [rising, single point] | 22.4 µM [rising, single point] |
| O=C(CCSCCc1ccccn1)Nc1ccc(Cc2ccncc2)cc1 | – | 0.282 µM [rising, full curve, poor fit] |
| Cc1cc(C(F)F)nn1CC(=O)Nc1cc([N+](=O)[O-])ccc1F | 7.94 µM [rising, partial curve, poor fit] | – |
| CCCCOc1ccc(-c2cc(C(=O)NNC(=S)NCC)c3ccccc3n2)cc1 | – | 11.2 µM [falling, partial curve, poor fit] |
| O=C(NN=C1CCCC1)c1cc(-c2ccc(F)cc2)nc2ccccc12 | – | 0.0794 µM [falling, full curve, poor fit] |
| CC(NC(=O)CCn1c(=O)c2cccn2c2ccc(F)cc21)c1ccccc1 (centres undefined) | 0.0282 µM [rising, full curve, poor fit] | – |
| COc1ccc(-c2oc(NC(=O)CSc3ncn[nH]3)c(C#N)c2-c2ccc(OC)cc2)cc1 | 31.6 µM [falling, single point] | 35.5 µM [falling, single point] |
| Cc1noc(C)c1COc1cccc(C(=O)NCc2ccccc2Cl)c1 | – | 12.6 µM [rising, single point] |
| CCN(CC)CCNC(=O)C1CCN(S(=O)(=O)c2c(C)noc2/C=C/c2ccccc2F)CC1 | 35.5 µM [rising, single point] | 35.5 µM [rising, single point] |
| CCN(CC)c1ccc2cc(-c3nnc(-c4ccncc4)o3)c(=O)oc2c1 | – | 7.08 µM [falling, partial curve, poor fit] |
| CCC/C=N/NC(=O)c1[nH]c2c([N+](=O)[O-])cccc2c1C | – | 3.16 µM [rising, partial curve] |
| O=C(Cc1cccs1)NC1CC(=O)N(c2ccccc2)C1 (centres undefined) | 0.158 µM [falling, full curve, poor fit] | – |
| O=C(Cc1ccccc1F)Nc1ccc(SC(F)F)cc1 | 11.2 µM [rising, single point] | 35.5 µM [rising, single point] |
| Cc1sc(NC(=O)C2C3CCC(C3)C2C(=O)O)c(C(N)=O)c1-c1ccc(C(C)(C)C)cc1 (centres undefined) | 14.1 µM [rising, partial curve] | 22.4 µM [rising, single point] |
| COc1ccc(C(c2nnnn2Cc2ccccc2)N2CCN(c3nc4ccccc4s3)CC2)cc1OC (centres undefined) | 35.5 µM [rising, single point] | 22.4 µM [rising, single point] |
| CCOC(=O)c1cc(-c2ccc(F)cc2)n(CC(=O)NC2CCCCC2)c1C | 7.94 µM [rising, partial curve, poor fit] | – |
| O=C(NCCCn1ncc2ccccc21)c1cc(COc2c(F)cccc2F)on1 | 1.41 µM [falling, partial curve] | 0.891 µM [falling, full curve, poor fit] |
| COc1ccc(-c2cc3nc(-c4ccccc4)cc(N4CCCC(O)C4)n3n2)cc1 (centres undefined) | 14.1 µM [rising, partial curve, poor fit] | 17.8 µM [rising, single point] |
| CCS(=O)(=O)c1ccc(C(=O)Nc2cccc(Cl)c2)c(Cl)c1Cl | 22.4 µM [rising, single point] | 22.4 µM [rising, single point] |
| COc1cc(CNc2ccc3[nH]c(=O)[nH]c3c2)cc(Br)c1OCC(=O)NC(C)(C)C | – | 14.1 µM [rising, single point] |
| CCOC(=O)c1c(C=O)c2sc(C)cc2n1C | 1.41 µM [rising, partial curve, poor fit] | 0.794 µM [rising, partial curve] |
| CC(NC(=O)NC1CCCCC1)C(c1cccs1)N1CCN(c2ccccc2)CC1 (centres undefined) | 35.5 µM [rising, single point] | 35.5 µM [rising, single point] |
| CCOc1ccccc1CNC(=O)CN1C(=O)CCCc2ccccc21 | 0.251 µM [rising, partial curve] | – |
| Cc1ccc(-n2ncc3c(NCCc4ccccc4)ncnc32)cc1C | 15.8 µM [falling, partial curve] | 14.1 µM [falling, partial curve, poor fit] |

Individual results from above:
Value for `O=C(Cc1ccccc1F)Nc1ccc(SC(F)F)cc1` under AC50 [2]: 35.5 µM [rising, single point]
Value for `O=C(NCCCn1ncc2ccccc21)c1cc(COc2c(F)cccc2F)on1` under AC50 [1]: 1.41 µM [falling, partial curve]
